{"source": "patent US7091185B2", "about": "“Periodic antimicrobial peptides” (Dow Global Technologies Inc., priority 2003, dated 2006)", "tested_on": "HeLa cell line", "test": "HeLa MTS cellular reduction toxicity assay", "type": "cell-based", "experimental": "The RBC protocol was from Blondelle (2000) and is described generally as follows: The toxicity toward the HeLa cell line was determined using a MTS (3-(4-5-dimethylthiazol-2-yl)-5-(3carboxymethoxyphenyl)-2-(4-sulfophenyl)-2H-tetrazolium, sodium salt) cellular reduction assay. MTS (2 mg/mL) was prepared in Dulbecco PBS (pH 7.35), filtered, aliquoted and stored at minus 20° C. In 96 well flat bottomed plates, cell suspensions (250 μL of 6×10^4 cell/mL in each well) were incubated for 48 h at 37° C. (5% CO2 incubator). The peptides (50 μL) were then added to the cell monolayer (following aspiration of the media from each well and addition of 50 μL of Dulbecco's Modified Eagles Medium) at varying concentrations derived from serial 2-fold dilutions, and the plates incubated for 24 h at 37° C. (5% CO2 incubator). Proliferation was then determined by adding a solution of phenazine methosulfate (PMS: 0.92 mg/mL in DPBS) to MTS at a 1:20 ration just prior to the assay. Twenty microliters MTS-PMS solution were added to each well and the plates incubated for 1 h at 37° C. (5% CO2 incubator). The relative percent toxicity was determined by comparing the absorbance at 490 nm of each peptide to the absorbance of cells without peptide. The TX50 (concentration required for 50% toxicity) was calculated using a sigmoidal curve fitting software (Graphpad Prism).", "note": "At least one peptide structure holds a part that was inferred or is arguable (an end, a ring closure or a residue). Where no end group is shown, it is not given here.", "data": [{"sequence": "FKLRAKIKVRLRAKIKL [D4E1, FKLRAKIKVRLRAKIKL, reference compound]", "values": [{"measurement": "% kill at 500 μg/ml", "setting": "500 μg/ml", "result": 55.2, "unit": "%"}, {"measurement": "TX50", "setting": "24 h, MTS", "result": ">500", "unit": "µg/mL"}]}]}
